No constants are given. Whether binding was seen depends on the method and setting. Binding seen in cells or lysates may run through a third protein. Some entries that bind do so weakly or less than the wild type.
Biological target: T1, FBXL8 (human (endogenous in MCF7 and MDA-MB231)) (UniProt Q96CD0)
T1 sequence: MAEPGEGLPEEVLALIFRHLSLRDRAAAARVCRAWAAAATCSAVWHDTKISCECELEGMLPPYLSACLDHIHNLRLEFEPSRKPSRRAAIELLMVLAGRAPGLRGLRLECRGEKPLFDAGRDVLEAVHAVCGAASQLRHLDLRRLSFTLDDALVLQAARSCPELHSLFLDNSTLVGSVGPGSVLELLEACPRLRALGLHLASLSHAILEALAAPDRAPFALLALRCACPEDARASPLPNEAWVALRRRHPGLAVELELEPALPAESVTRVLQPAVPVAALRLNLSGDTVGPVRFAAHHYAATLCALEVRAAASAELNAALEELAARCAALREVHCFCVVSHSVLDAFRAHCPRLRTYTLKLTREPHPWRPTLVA
Experiment: co-IP; total cell lysates of MCF7 or MDA-MB231 cells (48 h after FBXL8-siRNA or control siRNA) in CHAPS lysis buffer (20 mM Tris-HCl pH 7.5, 5 mM MgCl2, 137 mM KCl, 1 mM EDTA, 1 mM EGTA, 1% CHAPS), precleared, incubated overnight at 4 °C with anti-FBXL8 or control IgG2b antibody, protein G …; immunoblot for FBXL8, CCND2 or IRF5

Sequences of proteins named here, by UniProt entry; tags and fusion partners are left off.
UniProt P30279: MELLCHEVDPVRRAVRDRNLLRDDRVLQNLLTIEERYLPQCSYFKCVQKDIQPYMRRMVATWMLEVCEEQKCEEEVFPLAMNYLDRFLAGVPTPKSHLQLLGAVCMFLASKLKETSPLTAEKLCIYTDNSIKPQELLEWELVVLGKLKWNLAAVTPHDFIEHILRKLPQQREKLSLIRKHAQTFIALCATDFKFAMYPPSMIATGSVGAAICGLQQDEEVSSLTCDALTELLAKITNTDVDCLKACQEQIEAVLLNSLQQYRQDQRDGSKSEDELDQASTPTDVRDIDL
UniProt Q13568: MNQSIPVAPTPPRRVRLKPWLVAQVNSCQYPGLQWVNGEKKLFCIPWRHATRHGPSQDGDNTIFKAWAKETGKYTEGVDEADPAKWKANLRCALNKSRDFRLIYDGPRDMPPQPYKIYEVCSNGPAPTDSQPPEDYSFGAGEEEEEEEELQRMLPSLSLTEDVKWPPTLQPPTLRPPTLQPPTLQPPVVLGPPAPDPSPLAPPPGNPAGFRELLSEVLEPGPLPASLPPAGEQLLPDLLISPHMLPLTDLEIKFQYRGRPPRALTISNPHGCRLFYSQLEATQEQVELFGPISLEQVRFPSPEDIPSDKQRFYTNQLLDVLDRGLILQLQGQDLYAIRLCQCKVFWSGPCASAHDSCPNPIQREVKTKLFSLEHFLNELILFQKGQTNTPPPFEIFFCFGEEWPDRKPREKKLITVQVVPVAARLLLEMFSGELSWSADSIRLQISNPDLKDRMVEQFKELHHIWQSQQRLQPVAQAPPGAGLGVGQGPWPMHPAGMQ

binding | Substance
binds | Cyclin D2 (CCND2) (from UniProt P30279 1-289)
binds | Interferon Regulatory Factor 5 (IRF5) (from UniProt Q13568 1-498)

From paper PMC7465060
